Drawing on article PMC12173456, this text covers binding for two substances.

Sequences of proteins named here, by UniProt entry; tags and fusion partners are left off. Residues count along the entry.
UniProt P35951, residues 22-862: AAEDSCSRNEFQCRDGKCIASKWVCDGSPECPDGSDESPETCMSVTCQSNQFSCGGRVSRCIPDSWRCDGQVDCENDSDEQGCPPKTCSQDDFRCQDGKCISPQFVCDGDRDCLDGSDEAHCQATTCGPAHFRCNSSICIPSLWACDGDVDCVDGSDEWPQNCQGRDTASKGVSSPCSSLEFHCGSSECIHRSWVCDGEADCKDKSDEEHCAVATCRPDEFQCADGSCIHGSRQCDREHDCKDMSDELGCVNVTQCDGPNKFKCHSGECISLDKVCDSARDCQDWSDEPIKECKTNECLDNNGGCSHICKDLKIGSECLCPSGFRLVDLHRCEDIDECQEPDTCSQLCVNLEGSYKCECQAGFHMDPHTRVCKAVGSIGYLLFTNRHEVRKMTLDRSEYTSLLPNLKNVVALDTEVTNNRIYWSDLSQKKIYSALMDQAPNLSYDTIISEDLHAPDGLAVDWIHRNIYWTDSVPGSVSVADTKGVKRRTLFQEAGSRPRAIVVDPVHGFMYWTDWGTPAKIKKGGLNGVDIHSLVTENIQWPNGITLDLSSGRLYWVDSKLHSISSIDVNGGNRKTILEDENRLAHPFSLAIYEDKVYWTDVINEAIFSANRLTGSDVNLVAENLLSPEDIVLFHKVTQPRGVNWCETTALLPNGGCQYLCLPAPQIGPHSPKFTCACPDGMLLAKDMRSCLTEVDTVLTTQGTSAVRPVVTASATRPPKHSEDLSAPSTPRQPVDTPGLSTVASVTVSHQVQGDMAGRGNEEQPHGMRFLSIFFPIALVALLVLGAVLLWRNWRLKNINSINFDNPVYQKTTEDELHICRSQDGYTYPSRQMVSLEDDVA
UniProt Q91ZX7, residues 20-4545: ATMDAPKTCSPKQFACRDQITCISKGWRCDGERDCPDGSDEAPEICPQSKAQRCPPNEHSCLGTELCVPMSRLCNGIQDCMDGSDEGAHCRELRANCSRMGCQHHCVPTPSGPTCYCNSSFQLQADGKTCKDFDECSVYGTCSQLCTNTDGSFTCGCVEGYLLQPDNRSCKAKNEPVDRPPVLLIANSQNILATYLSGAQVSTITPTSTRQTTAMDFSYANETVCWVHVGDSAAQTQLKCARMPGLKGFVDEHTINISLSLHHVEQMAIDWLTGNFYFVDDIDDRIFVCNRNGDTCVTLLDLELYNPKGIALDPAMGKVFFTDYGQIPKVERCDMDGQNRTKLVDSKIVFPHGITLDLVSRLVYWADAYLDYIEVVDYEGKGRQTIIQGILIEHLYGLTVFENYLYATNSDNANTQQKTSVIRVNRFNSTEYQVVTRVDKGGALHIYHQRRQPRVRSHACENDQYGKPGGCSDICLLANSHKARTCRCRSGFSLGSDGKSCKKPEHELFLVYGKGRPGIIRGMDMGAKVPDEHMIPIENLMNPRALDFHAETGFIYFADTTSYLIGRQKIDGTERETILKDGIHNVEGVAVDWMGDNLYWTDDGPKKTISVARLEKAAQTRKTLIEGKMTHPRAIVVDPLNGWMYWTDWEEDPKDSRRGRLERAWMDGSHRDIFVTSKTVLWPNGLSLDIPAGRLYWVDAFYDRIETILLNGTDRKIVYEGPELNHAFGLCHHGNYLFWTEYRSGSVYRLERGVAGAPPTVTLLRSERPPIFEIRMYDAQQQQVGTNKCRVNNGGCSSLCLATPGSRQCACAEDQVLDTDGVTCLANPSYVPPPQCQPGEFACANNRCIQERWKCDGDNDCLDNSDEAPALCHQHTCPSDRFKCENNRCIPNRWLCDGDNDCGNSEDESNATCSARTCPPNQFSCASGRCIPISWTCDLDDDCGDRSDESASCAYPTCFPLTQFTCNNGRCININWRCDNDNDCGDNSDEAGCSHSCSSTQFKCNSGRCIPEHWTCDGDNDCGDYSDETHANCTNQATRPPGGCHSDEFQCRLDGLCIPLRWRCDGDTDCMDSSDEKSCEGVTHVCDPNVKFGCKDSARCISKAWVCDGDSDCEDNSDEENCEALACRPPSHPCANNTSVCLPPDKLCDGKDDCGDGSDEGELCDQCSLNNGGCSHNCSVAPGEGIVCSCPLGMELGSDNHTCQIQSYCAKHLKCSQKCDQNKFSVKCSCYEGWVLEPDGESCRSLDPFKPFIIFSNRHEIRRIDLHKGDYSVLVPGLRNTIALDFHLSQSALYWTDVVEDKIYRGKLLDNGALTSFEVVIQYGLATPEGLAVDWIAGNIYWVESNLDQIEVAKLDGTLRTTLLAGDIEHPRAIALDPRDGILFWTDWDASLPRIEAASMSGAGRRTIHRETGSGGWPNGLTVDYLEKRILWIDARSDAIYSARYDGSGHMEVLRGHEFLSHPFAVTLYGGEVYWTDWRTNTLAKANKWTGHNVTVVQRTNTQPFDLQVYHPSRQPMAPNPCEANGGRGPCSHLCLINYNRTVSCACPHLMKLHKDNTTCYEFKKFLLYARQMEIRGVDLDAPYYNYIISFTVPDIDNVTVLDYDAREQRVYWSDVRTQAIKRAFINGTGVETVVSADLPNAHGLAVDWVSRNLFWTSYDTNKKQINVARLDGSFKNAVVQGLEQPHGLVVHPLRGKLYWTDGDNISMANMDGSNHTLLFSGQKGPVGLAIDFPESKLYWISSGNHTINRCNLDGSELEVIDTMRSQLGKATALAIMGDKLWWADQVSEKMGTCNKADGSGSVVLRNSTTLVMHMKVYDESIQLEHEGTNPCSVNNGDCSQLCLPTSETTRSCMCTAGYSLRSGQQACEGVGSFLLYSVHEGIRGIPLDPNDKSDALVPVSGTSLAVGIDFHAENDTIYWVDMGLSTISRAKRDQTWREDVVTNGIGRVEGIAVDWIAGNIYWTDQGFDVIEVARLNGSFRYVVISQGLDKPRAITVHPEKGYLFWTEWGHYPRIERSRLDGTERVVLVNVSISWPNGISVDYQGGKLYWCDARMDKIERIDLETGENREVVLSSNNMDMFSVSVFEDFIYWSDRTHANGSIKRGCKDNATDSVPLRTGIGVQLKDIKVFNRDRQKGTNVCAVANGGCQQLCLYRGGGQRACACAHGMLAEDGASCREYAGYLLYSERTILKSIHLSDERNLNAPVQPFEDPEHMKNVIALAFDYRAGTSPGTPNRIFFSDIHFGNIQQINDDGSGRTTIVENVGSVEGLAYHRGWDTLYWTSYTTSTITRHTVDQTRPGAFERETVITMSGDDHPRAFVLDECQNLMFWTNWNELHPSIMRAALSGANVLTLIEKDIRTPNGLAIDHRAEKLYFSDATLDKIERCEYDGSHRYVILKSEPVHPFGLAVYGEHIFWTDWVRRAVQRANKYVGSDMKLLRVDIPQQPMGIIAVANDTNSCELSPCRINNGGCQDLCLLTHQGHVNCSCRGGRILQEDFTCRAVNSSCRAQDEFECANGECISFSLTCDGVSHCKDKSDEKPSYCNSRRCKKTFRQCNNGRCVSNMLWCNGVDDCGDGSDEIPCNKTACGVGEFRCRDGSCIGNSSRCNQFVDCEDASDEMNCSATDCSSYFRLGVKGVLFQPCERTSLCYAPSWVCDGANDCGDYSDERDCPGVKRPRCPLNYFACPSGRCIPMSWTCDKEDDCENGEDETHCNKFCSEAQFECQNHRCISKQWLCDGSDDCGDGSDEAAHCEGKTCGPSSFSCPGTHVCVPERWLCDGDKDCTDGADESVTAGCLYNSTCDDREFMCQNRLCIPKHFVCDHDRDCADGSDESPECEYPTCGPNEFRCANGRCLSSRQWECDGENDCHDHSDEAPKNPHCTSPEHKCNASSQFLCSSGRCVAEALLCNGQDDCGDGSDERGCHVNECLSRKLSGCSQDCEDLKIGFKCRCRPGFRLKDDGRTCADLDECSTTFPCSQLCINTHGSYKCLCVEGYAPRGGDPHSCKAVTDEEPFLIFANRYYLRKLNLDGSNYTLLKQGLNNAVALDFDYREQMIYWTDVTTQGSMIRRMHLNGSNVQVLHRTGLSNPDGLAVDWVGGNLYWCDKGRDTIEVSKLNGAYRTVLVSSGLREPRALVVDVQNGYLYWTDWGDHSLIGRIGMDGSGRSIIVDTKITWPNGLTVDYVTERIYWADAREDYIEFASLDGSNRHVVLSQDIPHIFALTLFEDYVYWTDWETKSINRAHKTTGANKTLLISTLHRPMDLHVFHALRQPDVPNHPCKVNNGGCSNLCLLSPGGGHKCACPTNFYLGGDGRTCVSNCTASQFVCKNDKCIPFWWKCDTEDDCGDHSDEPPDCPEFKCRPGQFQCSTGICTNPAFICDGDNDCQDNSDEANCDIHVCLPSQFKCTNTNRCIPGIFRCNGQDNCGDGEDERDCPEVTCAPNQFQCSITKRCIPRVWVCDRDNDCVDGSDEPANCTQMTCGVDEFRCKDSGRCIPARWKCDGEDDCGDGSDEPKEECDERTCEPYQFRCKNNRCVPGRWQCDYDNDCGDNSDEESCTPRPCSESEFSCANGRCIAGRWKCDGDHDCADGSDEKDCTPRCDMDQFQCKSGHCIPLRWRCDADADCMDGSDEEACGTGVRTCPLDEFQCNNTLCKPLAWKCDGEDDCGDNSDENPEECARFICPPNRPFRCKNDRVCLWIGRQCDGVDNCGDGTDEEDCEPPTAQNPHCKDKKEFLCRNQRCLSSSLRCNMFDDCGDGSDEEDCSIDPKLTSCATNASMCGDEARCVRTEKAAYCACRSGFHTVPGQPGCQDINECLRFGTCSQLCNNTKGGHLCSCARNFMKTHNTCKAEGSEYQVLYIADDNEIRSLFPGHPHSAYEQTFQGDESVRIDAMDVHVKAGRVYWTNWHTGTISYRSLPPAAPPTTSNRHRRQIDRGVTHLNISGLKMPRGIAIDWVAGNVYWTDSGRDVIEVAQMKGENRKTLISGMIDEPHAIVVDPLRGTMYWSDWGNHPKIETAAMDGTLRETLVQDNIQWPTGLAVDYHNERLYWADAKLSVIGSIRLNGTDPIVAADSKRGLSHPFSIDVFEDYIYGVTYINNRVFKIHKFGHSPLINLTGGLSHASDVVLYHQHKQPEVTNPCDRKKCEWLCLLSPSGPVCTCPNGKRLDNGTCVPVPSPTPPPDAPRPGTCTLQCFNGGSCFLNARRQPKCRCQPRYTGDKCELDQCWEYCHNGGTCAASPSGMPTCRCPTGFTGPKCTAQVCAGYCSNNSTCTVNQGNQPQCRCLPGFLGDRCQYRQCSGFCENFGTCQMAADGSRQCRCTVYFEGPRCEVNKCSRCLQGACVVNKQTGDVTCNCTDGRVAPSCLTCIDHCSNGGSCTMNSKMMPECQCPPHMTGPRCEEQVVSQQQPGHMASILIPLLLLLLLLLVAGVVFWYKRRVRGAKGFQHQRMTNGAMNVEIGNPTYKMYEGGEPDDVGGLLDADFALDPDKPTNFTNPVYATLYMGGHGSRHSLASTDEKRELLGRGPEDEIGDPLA

The target in this test is T1, K+–Cl− cotransporter 2 (KCC2) (mouse (endogenous in hippocampal tissue)) (UniProt Q91V14).
T1 sequence: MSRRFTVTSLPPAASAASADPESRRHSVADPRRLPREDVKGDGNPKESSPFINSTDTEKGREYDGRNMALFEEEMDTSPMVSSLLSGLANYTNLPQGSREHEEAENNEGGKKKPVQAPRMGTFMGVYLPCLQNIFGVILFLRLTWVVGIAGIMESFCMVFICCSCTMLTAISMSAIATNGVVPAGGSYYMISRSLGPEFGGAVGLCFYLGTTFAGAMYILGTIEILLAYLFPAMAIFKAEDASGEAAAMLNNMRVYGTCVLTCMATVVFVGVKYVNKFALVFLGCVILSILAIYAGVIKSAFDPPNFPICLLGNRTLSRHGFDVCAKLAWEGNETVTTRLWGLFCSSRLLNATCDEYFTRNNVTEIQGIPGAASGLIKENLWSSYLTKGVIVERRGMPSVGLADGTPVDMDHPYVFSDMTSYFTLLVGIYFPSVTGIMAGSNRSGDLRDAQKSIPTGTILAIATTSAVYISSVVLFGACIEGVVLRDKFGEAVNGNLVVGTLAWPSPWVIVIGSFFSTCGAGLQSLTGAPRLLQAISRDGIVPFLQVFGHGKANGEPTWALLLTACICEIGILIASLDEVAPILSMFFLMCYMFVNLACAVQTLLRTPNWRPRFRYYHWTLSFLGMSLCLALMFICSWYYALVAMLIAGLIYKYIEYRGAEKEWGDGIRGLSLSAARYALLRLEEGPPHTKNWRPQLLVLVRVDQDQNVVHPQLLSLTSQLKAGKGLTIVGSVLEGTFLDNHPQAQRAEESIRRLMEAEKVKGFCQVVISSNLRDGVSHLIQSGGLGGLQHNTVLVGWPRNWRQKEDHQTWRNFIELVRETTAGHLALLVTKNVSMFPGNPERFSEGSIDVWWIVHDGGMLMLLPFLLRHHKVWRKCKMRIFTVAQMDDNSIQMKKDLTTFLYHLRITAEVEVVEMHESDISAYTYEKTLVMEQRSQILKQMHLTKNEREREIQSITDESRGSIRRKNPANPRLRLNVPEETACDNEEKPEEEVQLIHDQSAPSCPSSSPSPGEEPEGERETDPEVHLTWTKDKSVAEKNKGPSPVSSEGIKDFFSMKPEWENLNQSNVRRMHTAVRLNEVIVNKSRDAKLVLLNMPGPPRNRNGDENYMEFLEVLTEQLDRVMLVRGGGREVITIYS
Nature of the test: co-IP; mouse hippocampal tissue homogenate (500 ug total protein) incubated with 2 ug anti-KCC2 antibody in immunoprecipitation buffer at 4 °C for 12 h, Protein A agarose overnight at 4 °C, acidic elution, immunoblotting. Background: In western blotting, separated proteins are transferred to a membrane and probed.

No constants are given. Whether binding was seen depends on the method and setting. Binding seen in cells or lysates may run through a third protein. Some entries that bind do so weakly or less than the wild type.

Take “low-density lipoprotein receptor (LDLR) (from UniProt P35951 22-862)”: the binding entry is recorded as “binds”. As for “LDLR-related protein 1 (LRP1) (from UniProt Q91ZX7 20-4545) (receptor)”, the binding entry is “binds”.
